In PMC10148843:
These are yes or no findings as the source states them, for the method shown. Binding seen in cells or lysates may run through a third protein. Here binding means that the protein was enriched with, or labelled near, the bait; the list need not be complete. For some assays here: No binding means not detected with the bait.

The chains behind the UniProt entries cited, without tags or fusion partners. Where a name states a change or a piece, a line headed by the entry shows the natural chain unless it says otherwise.
UniProt Q6R327: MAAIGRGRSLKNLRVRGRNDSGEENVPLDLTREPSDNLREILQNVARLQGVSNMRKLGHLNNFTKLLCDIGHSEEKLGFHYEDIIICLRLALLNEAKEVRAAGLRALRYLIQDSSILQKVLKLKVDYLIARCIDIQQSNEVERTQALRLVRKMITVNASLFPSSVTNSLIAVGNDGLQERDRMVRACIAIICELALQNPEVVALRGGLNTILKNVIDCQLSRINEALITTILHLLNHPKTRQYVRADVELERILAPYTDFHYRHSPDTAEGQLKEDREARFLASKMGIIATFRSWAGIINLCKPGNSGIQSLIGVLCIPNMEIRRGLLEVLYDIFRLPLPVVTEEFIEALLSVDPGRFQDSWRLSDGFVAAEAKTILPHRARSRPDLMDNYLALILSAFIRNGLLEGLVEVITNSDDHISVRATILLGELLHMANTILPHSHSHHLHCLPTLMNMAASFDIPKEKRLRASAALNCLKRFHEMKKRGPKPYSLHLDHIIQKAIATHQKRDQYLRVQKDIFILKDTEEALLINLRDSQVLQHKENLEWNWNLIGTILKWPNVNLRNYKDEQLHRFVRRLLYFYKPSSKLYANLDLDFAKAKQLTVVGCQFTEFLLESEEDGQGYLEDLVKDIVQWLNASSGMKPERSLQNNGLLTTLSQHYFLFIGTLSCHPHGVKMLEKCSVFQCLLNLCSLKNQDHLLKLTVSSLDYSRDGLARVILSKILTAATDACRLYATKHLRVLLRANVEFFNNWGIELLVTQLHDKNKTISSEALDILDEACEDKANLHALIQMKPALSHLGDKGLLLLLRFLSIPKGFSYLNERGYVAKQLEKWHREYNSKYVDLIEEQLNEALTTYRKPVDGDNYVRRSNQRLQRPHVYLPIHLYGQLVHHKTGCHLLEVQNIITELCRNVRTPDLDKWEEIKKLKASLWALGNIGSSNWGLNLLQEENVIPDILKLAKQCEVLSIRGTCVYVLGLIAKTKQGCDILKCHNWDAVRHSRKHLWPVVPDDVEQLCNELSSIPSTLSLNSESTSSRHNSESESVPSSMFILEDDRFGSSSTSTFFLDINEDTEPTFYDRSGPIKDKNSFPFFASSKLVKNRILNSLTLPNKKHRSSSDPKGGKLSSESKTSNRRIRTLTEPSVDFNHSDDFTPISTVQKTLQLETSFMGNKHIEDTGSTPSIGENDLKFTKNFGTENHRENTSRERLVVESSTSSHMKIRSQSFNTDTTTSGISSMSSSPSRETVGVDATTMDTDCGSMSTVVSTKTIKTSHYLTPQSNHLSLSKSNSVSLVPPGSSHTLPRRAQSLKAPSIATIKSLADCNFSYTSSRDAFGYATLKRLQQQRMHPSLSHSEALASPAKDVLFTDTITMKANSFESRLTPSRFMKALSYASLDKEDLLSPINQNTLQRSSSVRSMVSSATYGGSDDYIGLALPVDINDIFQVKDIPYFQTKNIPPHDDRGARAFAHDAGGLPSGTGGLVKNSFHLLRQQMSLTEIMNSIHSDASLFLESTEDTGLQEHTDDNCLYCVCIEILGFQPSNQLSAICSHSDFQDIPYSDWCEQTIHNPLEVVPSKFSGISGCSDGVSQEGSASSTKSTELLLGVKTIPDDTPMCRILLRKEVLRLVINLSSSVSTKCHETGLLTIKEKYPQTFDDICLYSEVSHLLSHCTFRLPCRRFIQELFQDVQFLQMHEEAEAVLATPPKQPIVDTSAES
UniProt P68366: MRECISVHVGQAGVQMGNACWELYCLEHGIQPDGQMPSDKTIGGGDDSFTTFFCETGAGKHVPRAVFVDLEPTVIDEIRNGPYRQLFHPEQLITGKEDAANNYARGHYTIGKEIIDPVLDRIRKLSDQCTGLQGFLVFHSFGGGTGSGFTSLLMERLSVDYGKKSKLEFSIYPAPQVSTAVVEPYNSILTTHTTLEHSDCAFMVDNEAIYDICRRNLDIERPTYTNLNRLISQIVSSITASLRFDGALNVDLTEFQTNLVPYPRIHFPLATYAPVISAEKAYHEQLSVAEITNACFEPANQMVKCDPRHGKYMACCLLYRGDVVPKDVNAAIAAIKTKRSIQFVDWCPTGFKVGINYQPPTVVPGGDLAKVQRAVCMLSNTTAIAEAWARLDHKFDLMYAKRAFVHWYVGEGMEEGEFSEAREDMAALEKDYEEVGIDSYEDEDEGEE
UniProt Q9UHB6: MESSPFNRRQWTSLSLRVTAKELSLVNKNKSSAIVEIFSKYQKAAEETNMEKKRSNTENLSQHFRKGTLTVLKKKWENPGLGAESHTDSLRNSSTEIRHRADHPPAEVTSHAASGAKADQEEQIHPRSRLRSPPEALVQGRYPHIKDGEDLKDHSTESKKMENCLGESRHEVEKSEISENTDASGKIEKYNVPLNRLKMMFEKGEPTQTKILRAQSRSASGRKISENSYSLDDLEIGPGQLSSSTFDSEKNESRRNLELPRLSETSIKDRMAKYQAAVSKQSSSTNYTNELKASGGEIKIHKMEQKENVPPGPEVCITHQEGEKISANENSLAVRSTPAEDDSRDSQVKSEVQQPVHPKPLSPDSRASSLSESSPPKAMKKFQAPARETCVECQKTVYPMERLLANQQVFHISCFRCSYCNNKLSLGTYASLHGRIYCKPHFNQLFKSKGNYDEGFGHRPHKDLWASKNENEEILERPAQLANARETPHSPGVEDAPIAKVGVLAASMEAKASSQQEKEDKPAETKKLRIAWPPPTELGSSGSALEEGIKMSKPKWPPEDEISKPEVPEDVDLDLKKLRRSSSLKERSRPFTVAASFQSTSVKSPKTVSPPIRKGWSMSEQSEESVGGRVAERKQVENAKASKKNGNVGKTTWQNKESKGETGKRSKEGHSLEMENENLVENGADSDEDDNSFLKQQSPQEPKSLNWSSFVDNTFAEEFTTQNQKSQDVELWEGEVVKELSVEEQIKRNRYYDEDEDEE
UniProt P35579: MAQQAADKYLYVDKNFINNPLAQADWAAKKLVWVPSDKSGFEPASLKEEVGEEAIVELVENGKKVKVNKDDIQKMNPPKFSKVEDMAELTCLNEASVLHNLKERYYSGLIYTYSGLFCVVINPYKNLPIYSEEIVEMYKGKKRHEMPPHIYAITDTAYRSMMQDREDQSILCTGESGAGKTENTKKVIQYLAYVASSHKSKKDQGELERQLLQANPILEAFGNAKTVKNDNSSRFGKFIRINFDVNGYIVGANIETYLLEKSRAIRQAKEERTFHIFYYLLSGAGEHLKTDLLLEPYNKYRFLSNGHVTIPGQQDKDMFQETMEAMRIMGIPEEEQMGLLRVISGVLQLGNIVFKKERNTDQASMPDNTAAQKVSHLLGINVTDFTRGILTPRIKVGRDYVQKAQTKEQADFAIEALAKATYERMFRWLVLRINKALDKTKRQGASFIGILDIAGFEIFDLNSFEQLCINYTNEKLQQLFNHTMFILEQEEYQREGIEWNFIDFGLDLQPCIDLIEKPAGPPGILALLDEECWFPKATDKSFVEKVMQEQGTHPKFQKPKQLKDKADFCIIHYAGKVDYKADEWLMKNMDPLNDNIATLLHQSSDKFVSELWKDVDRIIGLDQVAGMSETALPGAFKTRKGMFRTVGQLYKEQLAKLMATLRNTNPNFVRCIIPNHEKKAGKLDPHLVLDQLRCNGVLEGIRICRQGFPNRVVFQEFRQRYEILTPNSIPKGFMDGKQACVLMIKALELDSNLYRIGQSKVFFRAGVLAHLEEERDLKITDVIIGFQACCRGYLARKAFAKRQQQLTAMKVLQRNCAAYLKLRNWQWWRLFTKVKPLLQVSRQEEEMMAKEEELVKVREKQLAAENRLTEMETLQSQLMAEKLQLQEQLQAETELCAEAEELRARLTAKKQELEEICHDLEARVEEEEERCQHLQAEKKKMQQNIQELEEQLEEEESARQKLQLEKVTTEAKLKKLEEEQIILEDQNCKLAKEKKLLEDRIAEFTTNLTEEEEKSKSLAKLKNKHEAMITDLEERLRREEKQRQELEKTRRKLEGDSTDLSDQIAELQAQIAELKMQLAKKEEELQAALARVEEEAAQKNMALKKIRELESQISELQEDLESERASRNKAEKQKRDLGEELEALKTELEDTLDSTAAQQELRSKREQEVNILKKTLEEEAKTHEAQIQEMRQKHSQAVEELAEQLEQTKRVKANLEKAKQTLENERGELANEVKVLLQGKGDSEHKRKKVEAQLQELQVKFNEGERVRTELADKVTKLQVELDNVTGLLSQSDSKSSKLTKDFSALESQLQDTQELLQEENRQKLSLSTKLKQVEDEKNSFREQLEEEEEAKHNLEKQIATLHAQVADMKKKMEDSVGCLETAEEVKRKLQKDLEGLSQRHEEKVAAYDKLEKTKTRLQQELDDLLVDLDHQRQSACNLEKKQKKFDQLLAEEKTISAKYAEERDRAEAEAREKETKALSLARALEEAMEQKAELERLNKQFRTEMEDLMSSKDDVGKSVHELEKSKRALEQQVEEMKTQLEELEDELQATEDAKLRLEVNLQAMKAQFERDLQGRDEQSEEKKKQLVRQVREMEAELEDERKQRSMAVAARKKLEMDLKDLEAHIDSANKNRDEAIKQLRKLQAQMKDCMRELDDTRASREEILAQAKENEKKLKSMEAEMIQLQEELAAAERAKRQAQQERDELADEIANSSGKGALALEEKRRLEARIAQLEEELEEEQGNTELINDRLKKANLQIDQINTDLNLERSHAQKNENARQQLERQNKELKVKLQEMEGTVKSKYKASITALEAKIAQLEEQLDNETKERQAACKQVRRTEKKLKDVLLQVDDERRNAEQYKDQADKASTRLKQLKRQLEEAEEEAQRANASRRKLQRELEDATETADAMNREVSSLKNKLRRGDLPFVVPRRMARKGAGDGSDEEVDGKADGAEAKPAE
UniProt P06396: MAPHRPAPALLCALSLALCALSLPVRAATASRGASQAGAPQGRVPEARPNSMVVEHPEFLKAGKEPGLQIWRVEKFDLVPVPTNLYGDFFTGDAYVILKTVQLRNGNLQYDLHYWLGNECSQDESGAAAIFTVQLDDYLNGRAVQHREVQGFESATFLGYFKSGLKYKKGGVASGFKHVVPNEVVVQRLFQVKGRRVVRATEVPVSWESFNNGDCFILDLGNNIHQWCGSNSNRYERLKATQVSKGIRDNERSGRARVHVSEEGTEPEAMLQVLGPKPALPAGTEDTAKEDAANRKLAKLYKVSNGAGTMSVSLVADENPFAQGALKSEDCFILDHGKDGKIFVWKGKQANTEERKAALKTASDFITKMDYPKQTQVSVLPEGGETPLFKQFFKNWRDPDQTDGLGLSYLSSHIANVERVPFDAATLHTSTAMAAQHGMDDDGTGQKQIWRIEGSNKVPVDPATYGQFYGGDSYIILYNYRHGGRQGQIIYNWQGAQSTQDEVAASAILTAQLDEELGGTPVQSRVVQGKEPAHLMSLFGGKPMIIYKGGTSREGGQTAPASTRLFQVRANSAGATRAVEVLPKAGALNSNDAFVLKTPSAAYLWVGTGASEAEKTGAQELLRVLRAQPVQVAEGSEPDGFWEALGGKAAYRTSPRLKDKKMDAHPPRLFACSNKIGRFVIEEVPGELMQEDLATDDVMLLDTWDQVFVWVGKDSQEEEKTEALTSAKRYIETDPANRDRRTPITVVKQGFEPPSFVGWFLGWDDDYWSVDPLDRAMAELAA

B1: ATP-binding cassette subfamily F member 2 (ABCF2) (protein, UniProt Q9UG63 1-623)
chain: MPSDLAKKKAAKKKEAAKARQRPRKGHEENGDVVTEPQVAEKNEANGRETTEVDLLTKELEDFEMKKAAARAVTGVLASHPNSTDVHIINLSLTFHGQELLSDTKLELNSGRRYGLIGLNGIGKSMLLSAIGKREVPIPEHIDIYHLTREMPPSDKTPLHCVMEVDTERAMLEKEAERLAHEDAECEKLMELYERLEELDADKAEMRASRILHGLGFTPAMQRKKLKDFSGGWRMRVALARALFIRPFMLLLDEPTNHLDLDACVWLEEELKTFKRILVLVSHSQDFLNGVCTNIIHMHNKKLKYYTGNYDQYVKTRLELEENQMKRFHWEQDQIAHMKNYIARFGHGSAKLARQAQSKEKTLQKMMASGLTERVVSDKTLSFYFPPCGKIPPPVIMVQNVSFKYTKDGPCIYNNLEFGIDLDTRVALVGPNGAGKSTLLKLLTGELLPTDGMIRKHSHVKIGRYHQHLQEQLDLDLSPLEYMMKCYPEIKEKEEMRKIIGRYGLTGKQQVSPIRNLSDGQKCRVCLAWLAWQNPHMLFLDEPTNHLDIETIDALADAINEFEGGMMLVSHDFRLIQQVAQEIWVCEKQTITKWPGDILAYKEHLKSKLVDEEPQLTKRTHNV
B2: unconventional myosin-Id (MYO1D) (protein, UniProt O94832 1-1006)
chain: MAEQESLEFGKADFVLMDTVSMPEFMANLRLRFEKGRIYTFIGEVVVSVNPYKLLNIYGRDTIEQYKGRELYERPPHLFAIADAAYKAMKRRSKDTCIVISGESGAGKTEASKYIMQYIAAITNPSQRAEVERVKNMLLKSNCVLEAFGNAKTNRNDNSSRFGKYMDINFDFKGDPIGGHINNYLLEKSRVIVQQPGERSFHSFYQLLQGGSEQMLRSLHLQKSLSSYNYIHVGAQLKSSINDAAEFRVVADAMKVIGFKPEEIQTVYKILAAILHLGNLKFVVDGDTPLIENGKVVSIIAELLSTKTDMVEKALLYRTVATGRDIIDKQHTEQEASYGRDAFAKAIYERLFCWIVTRINDIIEVKNYDTTIHGKNTVIGVLDIYGFEIFDNNSFEQFCINYCNEKLQQLFIQLVLKQEQEEYQREGIPWKHIDYFNNQIIVDLVEQQHKGIIAILDDACMNVGKVTDEMFLEALNSKLGKHAHFSSRKLCASDKILEFDRDFRIRHYAGDVVYSVIGFIDKNKDTLFQDFKRLMYNSSNPVLKNMWPEGKLSITEVTKRPLTAATLFKNSMIALVDNLASKEPYYVRCIKPNDKKSPQIFDDERCRHQVEYLGLLENVRVRRAGFAFRQTYEKFLHRYKMISEFTWPNHDLPSDKEAVKKLIERCGFQDDVAYGKTKIFIRTPRTLFTLEELRAQMLIRIVLFLQKVWRGTLARMRYKRTKAALTIIRYYRRYKVKSYIHEVARRFHGVKTMRDYGKHVKWPSPPKVLRRFEEALQTIFNRWRASQLIKSIPASDLPQVRAKVAAVEMLKGQRADLGLQRAWEGNYLASKPDTPQTSGTFVPVANELKRKDKYMNVLFSCHVRKVNRFSKVEDRAIFVTDRHLYKMDPTKQYKVMKTIPLYNLTGLSVSNGKDQLVVFHTKDNKDLIVCLFSKQPTHESRIGELVGVLVNHFKSEKRHLQVNVTNPVQCSLHGKKCTVSVETRLNQPQPDFTKNRSGFILSVPGN
B3: KIF3B (protein, UniProt O15066 1-747)
chain: MSKLKSSESVRVVVRCRPMNGKEKAASYDKVVDVDVKLGQVSVKNPKGTAHEMPKTFTFDAVYDWNAKQFELYDETFRPLVDSVLQGFNGTIFAYGQTGTGKTYTMEGIRGDPEKRGVIPNSFDHIFTHISRSQNQQYLVRASYLEIYQEEIRDLLSKDQTKRLELKERPDTGVYVKDLSSFVTKSVKEIEHVMNVGNQNRSVGATNMNEHSSRSHAIFVITIECSEVGLDGENHIRVGKLNLVDLAGSERQAKTGAQGERLKEATKINLSLSALGNVISALVDGKSTHIPYRDSKLTRLLQDSLGGNAKTVMVANVGPASYNVEETLTTLRYANRAKNIKNKPRVNEDPKDALLREFQEEIARLKAQLEKRSIGRRKRREKRREGGGSGGGGEEEEEEGEEGEEEGDDKDDYWREQQEKLEIEKRAIVEDHSLVAEEKMRLLKEKEKKMEDLRREKDAAEMLGAKIKAMESKLLVGGKNIVDHTNEQQKILEQKRQEIAEQKRREREIQQQMESRDEETLELKETYSSLQQEVDIKTKKLKKLFSKLQAVKAEIHDLQEEHIKERQELEQTQNELTRELKLKHLIIENFIPLEEKSKIMNRAFFDEEEDHWKLHPITRLENQQMMKRPVSAVGYKRPLSQHARMSMMIRPEARYRAENIVLLELDMPSRTTRDYEGPAIAPKVQAALDAALQDEDEIQVDASSFESTANKKSKARPKSGRKSGSSSSSSGTPASQLYPQSRGLVPK

What was measured:
[1] = target: RICTOR (human (endogenous in U87MG, DBTRG-05MG, H4, SW1088)) (UniProt Q6R327); experiment: affinity purification with mass spectrometry; anti-RICTOR IP from U87MG lysate compared with H4 lysate, label-free quantification
[2] = target: RICTOR (human (endogenous in U87MG, DBTRG-05MG, H4, SW1088)) (UniProt Q6R327); experiment: affinity purification with mass spectrometry; anti-RICTOR IP from U87MG lysates, control against GSN knockdown (FANA antisense oligonucleotides); on-bead digestion, label-free quantification
[3] = target: RICTOR (human (endogenous in U87MG, DBTRG-05MG, H4, SW1088)) (UniProt Q6R327); experiment: affinity purification with mass spectrometry; anti-RICTOR antibody and protein A magnetic beads, endogenous proteins of U87MG lysate (2% CHAPS, 150 mM NaCl), washes with 300 mM NaCl; normal against siRICTOR-treated cells (QUICK), SDS-PAGE and in-gel digestion, label-free quantification
[4] = target: RICTOR (human (endogenous in U87MG, DBTRG-05MG, H4, SW1088)) (UniProt Q6R327); experiment: affinity purification with mass spectrometry; anti-RICTOR IP from U87MG lysates; cells serum-starved, serum-activated or treated with 2.0 µM AZD8055; GELFREE fractionation, eFASP in-solution digestion, label-free quantification
[5] = target: RICTOR (human (endogenous in U87MG, DBTRG-05MG, H4, SW1088)) (UniProt Q6R327); experiment: affinity purification with mass spectrometry; anti-RICTOR IP from lysate of U87MG cells treated with 2.0 µM AZD8055 (24 h); GELFREE fractionation, eFASP digestion

Row | Molecule | binding [1] | binding [2] | binding [3] | binding [4] | binding [5]
1 | FLNC (from UniProt Q14315 1-2725) | binds | – | – | – | –
2 | tubulin alpha-4A chain (TUBA4A) (from UniProt P68366 1-448) | binds | binds | – | – | –
3 | FLNA (from UniProt P21333 1-2647) | – | binds | binds | – | –
4 | LIMA1 (from UniProt Q9UHB6 1-759) | binds | – | – | – | –
5 | myosin-9 (MYH9) (from UniProt P35579 1-1960) | binds | binds | binds | binds | –
6 | microtubule-associated protein 1B (MAP1B) (from UniProt P46821 1-2468) | – | binds | – | binds | –
7 | SVIL (from UniProt O95425 1-2214) | binds | – | – | – | –
8 | gelsolin (GSN) (from UniProt P06396) | binds | binds | – | binds | no binding (only cells treated with 2.0 µM AZD8055)
9 | B1 | – | – | – | binds | no binding (only cells treated with 2.0 µM AZD8055)
10 | B2 | binds | binds | – | binds | –
11 | B3 | binds | – | – | – | –
